# Reference: the supplement of paper PMC12067093, “Discovery and optimisation of a covalent ligand for TRIM25 and its application to targeted protein ubiquitination” (Chemical Science, 2025)
# Sequences of proteins named here, by UniProt entry; tags and fusion partners are left off. A change or cut given only in a name is not applied to a line headed by its entry.
# UniProt Q13129: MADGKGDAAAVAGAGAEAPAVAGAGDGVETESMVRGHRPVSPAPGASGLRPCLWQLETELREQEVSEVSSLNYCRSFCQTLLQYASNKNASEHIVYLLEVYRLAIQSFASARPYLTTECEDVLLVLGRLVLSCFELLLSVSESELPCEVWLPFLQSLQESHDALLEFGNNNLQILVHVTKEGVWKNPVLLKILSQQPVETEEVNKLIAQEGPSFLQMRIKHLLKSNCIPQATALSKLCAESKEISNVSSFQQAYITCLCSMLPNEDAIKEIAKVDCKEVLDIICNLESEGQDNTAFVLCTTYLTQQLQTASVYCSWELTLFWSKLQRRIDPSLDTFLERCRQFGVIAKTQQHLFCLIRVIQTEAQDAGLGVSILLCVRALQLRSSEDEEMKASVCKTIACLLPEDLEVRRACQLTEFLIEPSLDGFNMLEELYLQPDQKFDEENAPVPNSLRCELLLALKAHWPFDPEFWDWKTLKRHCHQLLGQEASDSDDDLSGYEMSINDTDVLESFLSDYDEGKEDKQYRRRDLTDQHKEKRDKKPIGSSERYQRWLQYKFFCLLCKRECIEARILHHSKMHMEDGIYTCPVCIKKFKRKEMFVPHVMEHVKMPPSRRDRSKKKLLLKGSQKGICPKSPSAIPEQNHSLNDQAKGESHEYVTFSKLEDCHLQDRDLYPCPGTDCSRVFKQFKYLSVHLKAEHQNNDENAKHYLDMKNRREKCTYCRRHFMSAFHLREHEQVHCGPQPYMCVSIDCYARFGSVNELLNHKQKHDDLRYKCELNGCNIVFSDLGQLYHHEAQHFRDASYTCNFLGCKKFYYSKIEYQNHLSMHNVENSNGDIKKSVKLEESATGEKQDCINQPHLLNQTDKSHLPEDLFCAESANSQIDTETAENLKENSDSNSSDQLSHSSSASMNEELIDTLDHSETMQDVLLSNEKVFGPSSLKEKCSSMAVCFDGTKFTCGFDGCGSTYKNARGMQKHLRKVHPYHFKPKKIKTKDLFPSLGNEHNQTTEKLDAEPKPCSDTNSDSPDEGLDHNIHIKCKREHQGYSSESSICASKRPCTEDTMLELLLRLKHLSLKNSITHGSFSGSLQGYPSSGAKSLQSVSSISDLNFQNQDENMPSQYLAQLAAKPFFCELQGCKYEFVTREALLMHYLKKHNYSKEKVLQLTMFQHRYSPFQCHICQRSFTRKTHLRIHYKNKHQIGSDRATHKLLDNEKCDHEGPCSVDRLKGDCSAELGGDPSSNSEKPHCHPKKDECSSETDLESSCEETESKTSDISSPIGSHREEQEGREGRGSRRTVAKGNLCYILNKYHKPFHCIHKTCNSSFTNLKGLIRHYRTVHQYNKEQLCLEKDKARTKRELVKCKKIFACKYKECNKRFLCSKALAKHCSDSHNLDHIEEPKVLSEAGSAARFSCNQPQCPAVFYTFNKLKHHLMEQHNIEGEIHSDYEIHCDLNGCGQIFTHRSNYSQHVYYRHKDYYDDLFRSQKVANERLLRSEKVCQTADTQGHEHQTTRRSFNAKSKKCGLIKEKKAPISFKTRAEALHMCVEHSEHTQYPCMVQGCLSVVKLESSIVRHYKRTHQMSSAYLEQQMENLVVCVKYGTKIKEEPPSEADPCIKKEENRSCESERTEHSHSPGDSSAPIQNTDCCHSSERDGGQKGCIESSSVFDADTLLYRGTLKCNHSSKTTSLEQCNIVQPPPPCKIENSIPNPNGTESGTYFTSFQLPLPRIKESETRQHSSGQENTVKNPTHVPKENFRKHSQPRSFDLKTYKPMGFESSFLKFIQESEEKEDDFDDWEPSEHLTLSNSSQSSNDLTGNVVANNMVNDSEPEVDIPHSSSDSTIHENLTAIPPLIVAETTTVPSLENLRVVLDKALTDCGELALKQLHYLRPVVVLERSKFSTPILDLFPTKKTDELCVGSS
# UniProt Q9H6W3: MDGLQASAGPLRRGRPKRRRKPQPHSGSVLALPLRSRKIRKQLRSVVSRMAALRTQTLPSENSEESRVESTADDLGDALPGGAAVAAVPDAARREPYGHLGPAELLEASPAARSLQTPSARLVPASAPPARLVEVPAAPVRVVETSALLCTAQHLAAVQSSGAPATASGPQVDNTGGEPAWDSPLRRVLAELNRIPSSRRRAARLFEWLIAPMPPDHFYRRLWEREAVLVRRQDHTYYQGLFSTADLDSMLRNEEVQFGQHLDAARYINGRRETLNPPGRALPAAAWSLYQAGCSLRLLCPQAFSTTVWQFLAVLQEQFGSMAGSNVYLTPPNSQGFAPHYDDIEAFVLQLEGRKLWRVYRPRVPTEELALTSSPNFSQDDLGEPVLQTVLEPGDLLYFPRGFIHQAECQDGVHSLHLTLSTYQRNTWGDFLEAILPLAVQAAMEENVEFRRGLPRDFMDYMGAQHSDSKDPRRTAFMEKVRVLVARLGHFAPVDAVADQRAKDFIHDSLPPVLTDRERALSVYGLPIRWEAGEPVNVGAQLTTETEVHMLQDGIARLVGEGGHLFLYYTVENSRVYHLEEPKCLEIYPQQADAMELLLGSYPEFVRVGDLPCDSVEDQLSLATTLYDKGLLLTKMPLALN
# UniProt P40938, whole entry, looked up: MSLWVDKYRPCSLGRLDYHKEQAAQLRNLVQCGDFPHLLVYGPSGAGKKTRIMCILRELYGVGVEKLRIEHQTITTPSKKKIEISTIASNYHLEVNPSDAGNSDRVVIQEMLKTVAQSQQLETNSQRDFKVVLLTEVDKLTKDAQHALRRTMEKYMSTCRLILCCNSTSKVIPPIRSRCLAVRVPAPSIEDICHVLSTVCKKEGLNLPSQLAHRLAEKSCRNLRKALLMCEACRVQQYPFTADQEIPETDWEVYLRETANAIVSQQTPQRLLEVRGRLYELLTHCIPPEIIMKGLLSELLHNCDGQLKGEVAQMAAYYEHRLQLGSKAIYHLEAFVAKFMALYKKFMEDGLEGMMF
# UniProt Q13546: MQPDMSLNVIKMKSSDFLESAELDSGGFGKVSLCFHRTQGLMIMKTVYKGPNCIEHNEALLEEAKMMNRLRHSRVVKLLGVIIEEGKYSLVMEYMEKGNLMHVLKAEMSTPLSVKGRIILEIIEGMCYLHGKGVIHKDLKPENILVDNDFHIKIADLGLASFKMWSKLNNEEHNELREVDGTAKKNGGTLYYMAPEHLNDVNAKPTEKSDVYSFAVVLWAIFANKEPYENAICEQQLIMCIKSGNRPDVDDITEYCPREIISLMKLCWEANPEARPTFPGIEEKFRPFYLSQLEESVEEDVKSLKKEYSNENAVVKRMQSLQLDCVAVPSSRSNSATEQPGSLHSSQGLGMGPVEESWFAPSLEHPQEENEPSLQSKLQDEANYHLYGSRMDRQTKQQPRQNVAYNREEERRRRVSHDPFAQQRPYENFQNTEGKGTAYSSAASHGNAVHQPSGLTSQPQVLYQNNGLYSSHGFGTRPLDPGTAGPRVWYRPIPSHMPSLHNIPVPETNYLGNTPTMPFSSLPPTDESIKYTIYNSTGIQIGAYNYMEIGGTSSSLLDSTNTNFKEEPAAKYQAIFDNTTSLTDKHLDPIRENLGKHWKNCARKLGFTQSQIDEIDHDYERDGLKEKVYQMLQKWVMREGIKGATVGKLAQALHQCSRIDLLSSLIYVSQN
# UniProt O14730: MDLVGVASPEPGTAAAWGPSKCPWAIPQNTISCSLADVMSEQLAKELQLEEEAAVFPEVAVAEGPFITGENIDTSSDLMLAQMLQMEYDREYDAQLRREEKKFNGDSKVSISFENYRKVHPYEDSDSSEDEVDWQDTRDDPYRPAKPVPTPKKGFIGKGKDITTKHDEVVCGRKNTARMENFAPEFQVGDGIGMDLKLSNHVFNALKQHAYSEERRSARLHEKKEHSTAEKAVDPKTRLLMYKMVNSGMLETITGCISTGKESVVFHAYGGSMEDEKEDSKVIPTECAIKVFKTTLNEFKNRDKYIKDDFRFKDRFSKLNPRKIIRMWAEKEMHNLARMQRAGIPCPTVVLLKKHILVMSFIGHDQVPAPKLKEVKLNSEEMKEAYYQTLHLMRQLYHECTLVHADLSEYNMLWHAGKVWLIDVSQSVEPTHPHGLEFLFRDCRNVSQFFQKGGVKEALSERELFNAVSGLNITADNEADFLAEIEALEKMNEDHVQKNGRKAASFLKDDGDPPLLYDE
# UniProt Q6R327, whole entry, looked up: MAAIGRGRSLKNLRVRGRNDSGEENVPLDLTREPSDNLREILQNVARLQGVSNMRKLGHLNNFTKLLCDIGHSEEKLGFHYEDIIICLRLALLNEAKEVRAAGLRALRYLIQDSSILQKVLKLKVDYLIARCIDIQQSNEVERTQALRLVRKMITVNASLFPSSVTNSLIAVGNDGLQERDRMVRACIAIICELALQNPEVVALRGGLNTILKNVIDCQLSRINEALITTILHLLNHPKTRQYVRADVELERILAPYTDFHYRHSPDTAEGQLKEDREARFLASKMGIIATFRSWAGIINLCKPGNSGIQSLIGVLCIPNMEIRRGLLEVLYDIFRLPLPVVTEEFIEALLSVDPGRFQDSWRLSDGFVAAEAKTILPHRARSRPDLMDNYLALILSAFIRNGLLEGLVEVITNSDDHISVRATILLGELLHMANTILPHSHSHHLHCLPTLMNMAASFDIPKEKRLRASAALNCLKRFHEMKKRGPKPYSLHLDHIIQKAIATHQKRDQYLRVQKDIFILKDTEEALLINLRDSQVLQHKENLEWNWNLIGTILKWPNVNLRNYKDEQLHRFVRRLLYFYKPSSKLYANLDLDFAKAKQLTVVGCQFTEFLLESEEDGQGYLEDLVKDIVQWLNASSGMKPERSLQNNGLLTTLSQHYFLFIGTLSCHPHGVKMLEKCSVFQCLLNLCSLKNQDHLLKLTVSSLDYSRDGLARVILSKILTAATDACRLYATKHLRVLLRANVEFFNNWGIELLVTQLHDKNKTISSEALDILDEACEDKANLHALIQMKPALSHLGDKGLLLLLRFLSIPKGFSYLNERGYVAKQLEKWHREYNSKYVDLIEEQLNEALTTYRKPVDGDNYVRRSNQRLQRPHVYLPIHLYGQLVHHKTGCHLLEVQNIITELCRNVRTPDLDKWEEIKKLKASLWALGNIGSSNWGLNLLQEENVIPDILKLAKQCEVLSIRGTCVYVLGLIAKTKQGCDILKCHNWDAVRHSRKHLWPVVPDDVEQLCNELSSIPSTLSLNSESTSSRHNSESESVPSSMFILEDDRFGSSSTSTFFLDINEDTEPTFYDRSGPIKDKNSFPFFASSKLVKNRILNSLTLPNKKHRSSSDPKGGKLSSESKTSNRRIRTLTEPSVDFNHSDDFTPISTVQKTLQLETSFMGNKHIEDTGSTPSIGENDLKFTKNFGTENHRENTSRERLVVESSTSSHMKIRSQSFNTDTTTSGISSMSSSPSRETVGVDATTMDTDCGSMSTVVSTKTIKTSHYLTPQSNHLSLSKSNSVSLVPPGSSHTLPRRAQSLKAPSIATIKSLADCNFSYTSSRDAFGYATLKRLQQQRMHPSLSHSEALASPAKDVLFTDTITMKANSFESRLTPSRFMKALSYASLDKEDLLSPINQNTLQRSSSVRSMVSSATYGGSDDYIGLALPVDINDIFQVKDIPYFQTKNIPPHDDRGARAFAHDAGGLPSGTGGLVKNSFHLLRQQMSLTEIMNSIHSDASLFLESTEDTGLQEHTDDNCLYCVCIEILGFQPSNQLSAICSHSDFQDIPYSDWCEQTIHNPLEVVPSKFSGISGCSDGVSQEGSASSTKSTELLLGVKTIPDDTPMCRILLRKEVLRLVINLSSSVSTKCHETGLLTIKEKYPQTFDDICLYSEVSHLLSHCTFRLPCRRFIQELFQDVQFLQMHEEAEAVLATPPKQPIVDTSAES
# UniProt Q6PCD5: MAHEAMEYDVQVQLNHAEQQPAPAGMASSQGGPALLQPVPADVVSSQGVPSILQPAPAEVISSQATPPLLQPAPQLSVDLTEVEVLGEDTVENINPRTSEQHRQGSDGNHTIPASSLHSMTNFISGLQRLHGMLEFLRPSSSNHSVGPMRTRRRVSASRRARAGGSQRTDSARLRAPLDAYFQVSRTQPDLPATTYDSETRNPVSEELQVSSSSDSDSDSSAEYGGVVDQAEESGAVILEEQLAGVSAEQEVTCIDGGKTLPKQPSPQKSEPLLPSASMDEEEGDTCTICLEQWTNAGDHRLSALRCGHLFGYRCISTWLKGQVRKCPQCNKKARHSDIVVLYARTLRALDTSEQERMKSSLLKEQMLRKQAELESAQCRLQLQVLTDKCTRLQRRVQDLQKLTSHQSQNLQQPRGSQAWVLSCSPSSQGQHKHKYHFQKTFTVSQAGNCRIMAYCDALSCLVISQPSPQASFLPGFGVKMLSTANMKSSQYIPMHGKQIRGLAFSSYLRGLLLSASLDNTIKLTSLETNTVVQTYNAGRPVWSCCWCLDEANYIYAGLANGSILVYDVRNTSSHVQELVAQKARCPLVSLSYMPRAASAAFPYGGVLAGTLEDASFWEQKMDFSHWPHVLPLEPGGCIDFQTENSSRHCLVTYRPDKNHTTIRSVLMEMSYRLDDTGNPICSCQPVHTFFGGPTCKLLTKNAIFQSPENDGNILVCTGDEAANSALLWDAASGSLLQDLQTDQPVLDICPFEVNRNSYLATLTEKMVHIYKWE
# Some of the results follow.
# Compound: CC1Cc2ccccc2N1C(=O)C1CCCN(C1)C(=O)CCl (mixture of isomers) [TRIM25 ligand 11 (diastereomer mixture)]
# Assay: probe-labelled cysteine peptide fold change vs DMSO (competition) (log2 fold change); higher = less target engagement (more negative = stronger competition)
# Conditions: THP-1, incubation time: 4 h
# 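Note: competitive chemoproteomic profiling in live THP-1 cells with an iodoacetamide desthiobiotin (IA-DTB) probe, comparing probe-labelled peptide intensities in compound-treated cells against DMSO-treated controls.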
Target,probe-labelled cysteine peptide fold change (10 µM),probe-labelled cysteine peptide fold change (50 µM)
RLF_Q13129_1494_VCQTADTQGHEHQTTR (UniProt Q13129),0.0353,-0.00207
RFTN1_Q14699_551_ALVGICTGHSNPGEDAR (UniProt Q14699),-0.0992,-0.189
RLF_Q13129_355_TQQHLFCLIR (UniProt Q13129),-0.0725,0.316
RIOX1_Q9H6W3_409_GFIHQAECQDGVHSLHLTLSTYQR (UniProt Q9H6W3),0.122,-0.033
RFC3_P40938_164+165_LILCCNSTSK (UniProt P40938),-0.0991,0.221
RECQL4_O94761_814_DGQPAHCHLFLQPQGEDLR (UniProt O94761),-0.0554,0.0221
RHOT1_Q8IXI2_322_HDLDRDCALSPDELK (UniProt Q8IXI2),0.353,0.271
RNASEL_Q05823_576_DCLSDLLGHPFFWTWESR (UniProt Q05823),0.115,0.179
RFC2_P35250_255_VCDEPHPLLVK (UniProt P35250),0.181,0.104
RIPK1_Q13546_325_MQSLQLDCVAVPSSR (UniProt Q13546),0.094,-0.115
RIOK3_O14730_400_QLYHECTLVHADLSEYNMLWHAGK (UniProt O14730),0.0248,-0.027
RELA_Q04206_105_DCRDGFYEAELCPDR (UniProt Q04206),-0.206,-0.178
RHOG_P84095_102+105_WHPEVCHHCPDVPILLVGTK (UniProt P84095),0.00764,-0.0445
RMND1_Q9NWS8_310_FAFSNALCLSVK (UniProt Q9NWS8),-0.239,0.267
RFC3_P40938_303_GLLSELLHNCDGQLK (UniProt P40938),0.114,0.0584
RFC4_P35249_281_IDGVFAACQSGSFDKLEAVVK (UniProt P35249),-0.258,-0.149
REXO4_Q9GZR2_248_ALALDCEMVGVGPK (UniProt Q9GZR2),-0.04,0.0782
RICTOR_Q6R327_1651_YPQTFDDICLYSEVSHLLSHCTFR (UniProt Q6R327),0.201,-0.187
RFWD3_Q6PCD5_379_QAELESAQCR (UniProt Q6PCD5),0.0654,-0.0528
RHOT2_Q8IXI1_185_QLRPACAQALTR (UniProt Q8IXI1),-0.0278,-0.07

# Single records (already shown).
# RIOK3_O14730_400_QLYHECTLVHADLSEYNMLWHAGK (UniProt O14730) in the list: probe-labelled cysteine peptide fold change (10 µM) = 0.0248; probe-labelled cysteine peptide fold change (50 µM) = -0.027
# RIOX1_Q9H6W3_409_GFIHQAECQDGVHSLHLTLSTYQR (UniProt Q9H6W3) in the list: probe-labelled cysteine peptide fold change (10 µM) = 0.122; probe-labelled cysteine peptide fold change (50 µM) = -0.033

# Carrying on.

Target,probe-labelled cysteine peptide fold change (10 µM),probe-labelled cysteine peptide fold change (50 µM)
RINL_Q6ZS11_421_LAHLHAACAPR (UniProt Q6ZS11),-0.106,-0.312
RICTOR_Q6R327_893_TGCHLLEVQNIITELCR (UniProt Q6R327),-0.0249,-0.134
RNASET2_O00584_48_LIMVQHWPETVCEK (UniProt O00584),-0.173,-0.327
RIF1_Q5UIP0_312_SLIDNFALNPDILCSAK (UniProt Q5UIP0),0.012,0.0491
RGS19_P49795_123_TEYSEENMLFWLACEELK (UniProt P49795),0.234,0.187
RENBP_P51606_396_CLAMCEEMLGALLSR (UniProt P51606),0.077,0.206
RFC4_P35249_180_FCLICNYVSR (UniProt P35249),-0.16,-0.0464
RGS14_O43566_496_QTCDIEGLVELLNR (UniProt O43566),-0.131,-0.475
RNF126_Q9BV68_32_CESGFIEELPEETR (UniProt Q9BV68),-0.0236,0.0256
RFWD3_Q6PCD5_315_CISTWLK (UniProt Q6PCD5),-0.0654,-0.0462
RLF_Q13129_453_CELLLALK (UniProt Q13129),0.116,0.0193
RNASE3_P12724_138_FYVVACDNRDPR (UniProt P12724),-0.164,-0.135
REST_Q13127_402_CNLQYHFK (UniProt Q13127),-0.0852,-0.061
RNASEH2C_Q8TDP1_34_DAVPATLHLLPCEVAVDGPAPVGR (UniProt Q8TDP1),-0.134,-0.12
RECQL4_O94761_389_KKGECFGGGGATVTTK (UniProt O94761),0.0198,-0.0239
RLF_Q13129_1055_RPCTEDTMLELLLR (UniProt Q13129),-0.00543,-0.22
RDH14_Q9HBH5_148_LDVLINNAGIFQCPYMK (UniProt Q9HBH5),0.333,-0.204
RFX2_P48378_436_LISLCQCDPILR (UniProt P48378),-0.0748,-0.024
RIPK1_Q13546_256_SGNRPDVDDITEYCPR (UniProt Q13546),-0.0287,0.025
